# Assay results from patent US20030170287A1, “Drug delivery systems for the prevention and treatment of vascular diseases” (priority 2002, published 2003).
# At least one structure is not confirmed: it was looked up by name or label, or the drawing left a doubt.
# Test system: dialysis patients with indwelling large bore catheter
# Assay: Prevention or reduction of vascular access dysfunction after insertion of an indwelling catheter into the vein of a patient
# Assay type: in vivo
# Conditions: daily dose of 0.75 to 20 mg, 3 month treatment, observation period of 6 months
# Protocol: A5. Prevention or Reduction of Vascular Access Dysfunction in Association with the Insertion of an Indwelling Catheter into the Vein of a Patient
# One hundred fifty prospective dialysis patients, who undergo successful insertion of an indwelling, large bore catheter, into a vein are selected for the study. […] In addition, patients may also be given a calcium antagonist, nitrates and/or anti-platelet agents. These drugs are administered for 3 consecutive months following catheter insertion.
smiles,measurement,value
"CO[C@H]1C[C@@H]2CC[C@@H](C)[C@@](O)(O2)C(=O)C(=O)N2CCCC[C@H]2C(=O)O[C@H]([C@H](C)C[C@@H]2CC[C@@H](O)[C@H](OC)C2)CC(=O)[C@H](C)/C=C(\C)[C@@H](O)[C@@H](OC)C(=O)[C@H](C)C[C@H](C)/C=C/C=C/C=C/1C [rapamycin, reference compound]",prevention or reduction of vascular access dysfunction after catheter insertion,demonstrate the efficacy
